The text below walks through data of patent US20230280350A1 (NORDIC BIOSCIENCE A S, published 2023).

Chains of the proteins cited; added tags and fusions are not shown. Residues count along the entry.
UniProt Q07092, residues 22-1604: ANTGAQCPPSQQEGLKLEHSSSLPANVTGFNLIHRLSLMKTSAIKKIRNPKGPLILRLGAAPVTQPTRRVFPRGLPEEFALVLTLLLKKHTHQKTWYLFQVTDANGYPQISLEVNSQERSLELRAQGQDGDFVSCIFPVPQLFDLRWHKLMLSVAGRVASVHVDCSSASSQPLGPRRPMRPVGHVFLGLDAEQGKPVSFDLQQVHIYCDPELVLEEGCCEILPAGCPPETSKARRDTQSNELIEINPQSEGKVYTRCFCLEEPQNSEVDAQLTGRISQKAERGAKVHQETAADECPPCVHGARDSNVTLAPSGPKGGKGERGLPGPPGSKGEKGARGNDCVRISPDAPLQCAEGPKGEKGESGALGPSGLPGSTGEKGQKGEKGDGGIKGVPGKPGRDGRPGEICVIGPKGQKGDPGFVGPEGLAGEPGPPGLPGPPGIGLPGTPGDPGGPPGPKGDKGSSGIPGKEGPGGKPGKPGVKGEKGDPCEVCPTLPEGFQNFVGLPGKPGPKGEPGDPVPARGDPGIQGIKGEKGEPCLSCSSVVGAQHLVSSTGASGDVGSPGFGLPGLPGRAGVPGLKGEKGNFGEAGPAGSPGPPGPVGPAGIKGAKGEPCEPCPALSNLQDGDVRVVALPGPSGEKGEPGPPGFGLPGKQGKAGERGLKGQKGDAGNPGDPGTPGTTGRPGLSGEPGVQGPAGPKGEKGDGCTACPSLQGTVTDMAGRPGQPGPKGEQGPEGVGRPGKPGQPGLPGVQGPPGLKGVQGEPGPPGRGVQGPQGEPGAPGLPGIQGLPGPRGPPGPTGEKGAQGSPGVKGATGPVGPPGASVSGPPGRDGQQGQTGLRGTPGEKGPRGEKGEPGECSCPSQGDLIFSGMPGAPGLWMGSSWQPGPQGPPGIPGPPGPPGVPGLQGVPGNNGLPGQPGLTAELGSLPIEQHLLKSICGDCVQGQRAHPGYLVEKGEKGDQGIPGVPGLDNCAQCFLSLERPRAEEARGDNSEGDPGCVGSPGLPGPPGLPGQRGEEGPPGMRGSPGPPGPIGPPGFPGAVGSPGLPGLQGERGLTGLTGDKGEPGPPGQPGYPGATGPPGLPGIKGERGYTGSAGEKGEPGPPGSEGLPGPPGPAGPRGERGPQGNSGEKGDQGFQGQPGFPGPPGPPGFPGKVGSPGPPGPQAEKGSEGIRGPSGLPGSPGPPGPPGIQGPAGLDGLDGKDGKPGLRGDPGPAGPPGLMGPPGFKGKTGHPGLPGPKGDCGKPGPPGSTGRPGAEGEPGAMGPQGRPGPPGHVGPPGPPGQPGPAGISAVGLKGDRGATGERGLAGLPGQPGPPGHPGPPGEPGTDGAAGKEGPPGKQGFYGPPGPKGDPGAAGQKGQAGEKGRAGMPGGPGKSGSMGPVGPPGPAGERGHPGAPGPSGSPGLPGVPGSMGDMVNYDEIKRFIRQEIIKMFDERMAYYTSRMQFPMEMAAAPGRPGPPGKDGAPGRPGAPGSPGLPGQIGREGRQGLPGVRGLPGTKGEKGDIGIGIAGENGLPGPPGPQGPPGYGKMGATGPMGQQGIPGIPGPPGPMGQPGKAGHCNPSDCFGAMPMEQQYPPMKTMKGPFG

The target in assay [1] is type XVI collagen α1 chain (native material in human serum) (human) (UniProt Q07092). In words: competitive ELISA, peptide specificity. (In general: An ELISA detects its analyte on a solid surface through an enzyme-linked reagent.)
The target is the same in assay [2]. The assay can be described thus: competitive ELISA on human serum.

These are yes or no findings as the source states them, for the method shown. Some binding calls cover weakened binding; strength is not graded here.

B1: monoclonal antibody of the PRO-C16 assay, raised against KLH-CGG-… (antibody, mouse IgG2b, kappa, V domains shown)
VH: EVQLQQSGAELVRSGASVKLSCTASGFNIKDYYIHWVKQRPEQGLEWIGWIDHDNGDTEYDPKFQGKATLTADTSSNTAYLQLSSLTSEDTAVYYCNAKGPRYGYEEDWFAYWGQGTLVTVST
VL: DVLMTQTPLSLPVSLGDQASISCRSSQSIVHNNGNTYLEWFLQKPGQSPKLLIYKVSNRFSGVPDRFSGSGSGTDFTLRISRVEADDLGVYYCFQGSHVPRTFGGGTKLEIKR
notes: also called PRO-C16 antibody; C16-C
Take B1: the binding result in assay [1] and in assay [2] was “binds” throughout.
